The nature of this assay: qHTS Assay for Modulators of Lamin A Splicing. Particulars: HeLa LMNA splicing GFP/RFP minigene ratio, 48 h. A digest of the protocol: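 S3 HeLa cells stably expressing lamin A-EGFP splicing minigene plus DsRed2, 600 cells/well, 48 h compound exposure at 37C. Laser-scanning cytometry; analysed as GFP (500-530 nm)/RFP (575-640 nm) total intensity ratio; 0.5% DMSO vehicle.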

The mark [1] stands for this setting: measured here: RFP viability control channel.
[2] abbreviates: measured here: GFP splicing reporter channel.

The other results are listed elsewhere or left out. Further columns of the screen follow, without active or inactive calls. Compounds called inactive in the main read-out are mostly missing here. Potencies come from curve fits of mixed quality, noted in brackets.

With `C=C(C)Cn1c(SCC(=O)N/N=C/c2c(O)ccc3ccccc23)nc2ccccc2c1=O`, the AC50 under setting [1] was 5.62 µM [rising, single point]. Consider `COc1cc2c(cc1OC)C(c1ccc(-c3ccc(Cl)cc3Cl)o1)=NCC2`, for which the AC50 under setting [2] is 14.1 µM [falling, single point]. For the compound `COC(=O)c1ccccc1NC(=O)c1ccc2nc(CCc3ccccc3)oc2c1`, under setting [1], the AC50 was 10 µM [rising, partial curve]. Turning to `CN(C)c1ccc(/C=C(/C(=O)c2ccc(Cl)cc2Cl)n2cncn2)cc1`, under setting [1], the half-maximal activity concentration (AC50) was 17.8 µM [rising, single point]. Regarding `COc1cccc(Cn2c(=O)c(-c3ccc(F)cc3)nc3cnc(OC)nc32)c1`, the AC50 under setting [2] was 25.1 µM [falling, partial curve] and the AC50 under setting [1] was 28.2 µM [falling, single point]. For `Cc1ccc(N=Cc2c(O)ccc3ccccc23)cc1F`, under setting [1], the AC50 was 35.5 µM [rising, single point]. Turning to `CC(=O)N(c1ccccc1C)C1CCCC1`, under setting [1], the AC50 is 0.112 µM [rising, single point]. As to `Cc1cccc(NC(=S)NCCC(c2ccccc2)c2ccccc2)c1`, the AC50 under setting [2] is 8.91 µM [rising, partial curve] and the AC50 under setting [1] was 25.1 µM [rising, partial curve].

On to `Cc1cc(C)cc(N(CCC#N)C(=O)CSC2=Nc3ccccc3C3CC=NN23)c1` (stereo not drawn), for which the AC50 runs as follows: under setting [2], 14.1 µM [falling, partial curve, poor fit]; under setting [1], 35.5 µM [falling, partial curve]. Regarding `Cn1nc(C(F)(F)F)c2cc(NC(=O)OCc3ccc(F)cc3)sc21`, the AC50 under setting [1] was 20 µM [rising, single point]. On to `O=C(Nc1ccccc1F)Nc1cc(S(=O)(=O)N2CCOCC2)ccc1N1CCCC1`, for which the AC50 is, setting by setting: under setting [2], 0.316 µM [rising, full curve, poor fit]; under setting [1], 1 µM [rising, partial curve]. As for `C=CCn1c(=O)c(C(=O)NCCc2ccccc2)c(O)c2ccccc21`, under setting [1], the AC50 was 35.5 µM [rising, single point]. On the same count and under the same terms, as for `Cc1ccc(-c2cc3nc(-c4ccc(Br)cc4)cc(N)n3n2)cc1`, the figure is 17.8 µM [rising, single point].

`CC(=O)Nc1c(Nc2ccccc2)c2ccccc2oc1=O`: the AC50 under setting [2] is 0.282 µM [rising, partial curve, poor fit]. Turning to `Cc1ccc(Cl)cc1NC(=O)CSc1nc2ccccc2nc1Cc1ccccc1`, the AC50 under setting [2] was 0.794 µM [rising, full curve, poor fit] and the AC50 under setting [1] was 1.12 µM [rising, full curve]. As to `O=C(NCCc1csc(-c2cccnc2)n1)c1cccc2ccccc12`, the AC50 under setting [1] is 4.47 µM [rising, partial curve, poor fit].

Turning to `Cc1ccc(S(=O)(=O)N2CCC(=O)N(CCOC(=O)Nc3cc(C)cc(C)c3)CC2)cc1`, the AC50 under setting [1] was 22.4 µM [rising, single point].

Turning to `COc1ccc(NC(=S)SC)cc1OC`, the AC50 under setting [2] is 10 µM [rising, single point]. On to `Cc1cc(C)n(-c2cc(N3CCN(S(=O)(=O)c4ccc(Br)cc4)CC3)ccc2[N+](=O)[O-])n1`, for which the AC50 was 12.6 µM [rising, partial curve, poor fit] under setting [2] and 35.5 µM [rising, partial curve] under setting [1]. `O=C(CN(c1cccc(C(F)(F)F)c1)S(=O)(=O)c1ccc(Cl)c([N+](=O)[O-])c1)NCc1ccccc1Cl`: the AC50 runs as follows: under setting [2], 11.2 µM [falling, partial curve, poor fit]; under setting [1], 12.6 µM [falling, single point].

With `Cc1ccc(N/C=C/C(=O)C(C)(C)C)c(O)c1`, under setting [1], the AC50 is 15.8 µM [rising, single point]. The same measure, in the same setting: under `CC(/C=N/NC(=O)c1cc(C(C)C)[nH]n1)=C\c1ccccc1` stands 12.6 µM [rising, single point].

Regarding `CCCCCc1nc2sc3c(c2c(=O)n1NC(=O)c1ccc([N+](=O)[O-])cc1)CC(C)(C)OC3`, the AC50 under setting [1] is 5.01 µM [rising, partial curve].

On to `COc1cc(/C=N/NC(=O)c2cc(-c3ccccc3OC(C)C)nc3ccccc23)ccc1O`, for which the AC50 is, setting by setting: under setting [2], 11.2 µM [rising, partial curve]; under setting [1], 8.91 µM [rising, partial curve].

In the case of `Cn1c(/C(C#N)=C/c2ccc(-c3ccc(S(N)(=O)=O)cc3)o2)nc2ccccc21`, the AC50 by setting is: under setting [2], 25.1 µM [falling, single point]; under setting [1], 11.2 µM [falling, partial curve, poor fit]. Take `COc1cc(/C=N/OCC(=O)NC2CCS(=O)(=O)C2)ccc1OC(F)F` (stereo not drawn): the AC50 under setting [1] was 39.8 µM [falling, partial curve, poor fit]. Turning to `OC(CNCC(c1ccc(Cl)cc1Cl)c1c[nH]c2ccccc12)c1ccccc1` (stereo not drawn), the AC50 runs as follows: under setting [2], 2 µM [falling, partial curve]; under setting [1], 2.82 µM [falling, partial curve]. Consider `N#Cc1cc2c(nc1SCc1cccnc1)CCCCC2`, for which the AC50 is, setting by setting: under setting [2], 12.6 µM [rising, single point]; under setting [1], 31.6 µM [rising, single point].

With `CCOC(=O)N1CCC(NC(=O)c2cc3cc4cc(OC)ccc4nc3o2)CC1`, the AC50 under setting [1] was 22.4 µM [rising, single point]. In the case of `O=C(NC1CC(=O)N(c2cccc(F)c2)C1)c1cc2ccccc2o1` (stereo not drawn), the AC50 under setting [1] is 0.00891 µM [falling, full curve, poor fit].

`O=C(Nc1ccccc1C(F)(F)F)N1CCC(CN2CCc3ccccc3C2)CC1`: under setting [2], the AC50 is 0.02 µM [rising, full curve, poor fit]. For `Cc1cc(C)cc(-n2c(SCC(N)=O)nc3c([nH]c4ccccc43)c2=O)c1`, the AC50 under setting [2] was 39.8 µM [falling, partial curve, poor fit]. Regarding `CCOc1ccccc1NC(=O)N1CCC(n2nnc3cc(C)ccc32)CC1`, the AC50 under setting [1] is 0.447 µM [rising, full curve, poor fit]. Consider `COc1ccc(OCC(=O)NNc2c3ccccc3nc3ccccc23)cc1`, for which the concentration at half-maximal activity (AC50) is 35.5 µM [falling, single point] under setting [2] and 35.5 µM [falling, single point] under setting [1].

For `CCCCN1C(=O)c2ccc(C(=O)NCCN3C(=O)S/C(=C\c4cccnc4)C3=O)cc2C1=O`, the AC50 runs as follows: under setting [2], 8.91 µM [rising, partial curve]; under setting [1], 7.94 µM [rising, partial curve].

Values taken from PubChem BioAssay AID1487 (National Center for Advancing Translational Sciences (NCATS), 2009).
